Data taken from patent US8409550B2, “Method for treating skin with retinoids and retinoid boosters” (Unilever Home & Personal Care, USA, Division of Conopco, …, priority 2000, dated 2013).

Tested on: cytochrome P450 dependent retinoic acid oxidation
Experiment: Assay for NADPH dependent retinoic acid oxidation, rat liver microsomes (to identify B5)
Conditions: compound 100 μM

% Inhibition Retinoic Acid (100 μM): 85%
Structure (SMILES): Clc1ccccc1C(c1ccccc1)(c1ccccc1)n1ccnc1 [Clotrimazole]
